This is one part of the list.
Legend:
Experiment in all cases: log2 fold change, soluble protein after heating vs DMSO (PISA); higher = thermal stabilisation; K562 cells, 10 uM, 30 min; active = over 0.2 and 3.5 SD of the protein, either way, in both replicates (recomputed)
bafetinib = compound: Cc1ccc(NC(=O)c2ccc(CN3CC[C@H](N(C)C)C3)c(C(F)(F)F)c2)cc1Nc1nccc(-c2cncnc2)n1 [bafetinib]
Method in brief: (§1)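 Soluble protein was quantified by TMTpro 16plex LC-MS/MS after channel sums were equalised. It was obtained as the supernatant after 21,000xg for 90 min from pooled aliquots of K562 cells (2×10^6 cells/mL, 10 μM compound, 30 min) heated for 3 min across 48°C-58°C and extracted in PBS with 0.5% NP-40 at 4°C. Thermal stability values are relative to control samples and come from duplicates. They are given as log2 fold changes.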

Amino acid sequences for entries named in this document (tags omitted). A change or cut given only in a name is not applied to a line headed by its entry.
UniProt Q96P11: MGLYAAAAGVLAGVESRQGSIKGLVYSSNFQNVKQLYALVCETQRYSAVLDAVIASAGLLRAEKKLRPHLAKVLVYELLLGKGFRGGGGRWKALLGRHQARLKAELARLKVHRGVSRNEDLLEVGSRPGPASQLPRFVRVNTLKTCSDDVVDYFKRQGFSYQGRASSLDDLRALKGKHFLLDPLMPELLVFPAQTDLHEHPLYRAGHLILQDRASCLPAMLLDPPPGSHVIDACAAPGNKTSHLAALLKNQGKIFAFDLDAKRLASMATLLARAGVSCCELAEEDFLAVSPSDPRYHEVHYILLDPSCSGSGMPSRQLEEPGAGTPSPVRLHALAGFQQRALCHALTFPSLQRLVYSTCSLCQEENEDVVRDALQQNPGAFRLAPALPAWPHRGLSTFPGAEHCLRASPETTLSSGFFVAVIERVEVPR
UniProt Q96DE0: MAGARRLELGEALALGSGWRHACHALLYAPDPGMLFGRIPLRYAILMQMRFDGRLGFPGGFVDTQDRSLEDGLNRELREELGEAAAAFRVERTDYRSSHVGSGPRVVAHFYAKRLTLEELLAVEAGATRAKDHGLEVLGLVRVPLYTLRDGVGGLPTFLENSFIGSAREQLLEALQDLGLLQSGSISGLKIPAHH
UniProt Q9H857: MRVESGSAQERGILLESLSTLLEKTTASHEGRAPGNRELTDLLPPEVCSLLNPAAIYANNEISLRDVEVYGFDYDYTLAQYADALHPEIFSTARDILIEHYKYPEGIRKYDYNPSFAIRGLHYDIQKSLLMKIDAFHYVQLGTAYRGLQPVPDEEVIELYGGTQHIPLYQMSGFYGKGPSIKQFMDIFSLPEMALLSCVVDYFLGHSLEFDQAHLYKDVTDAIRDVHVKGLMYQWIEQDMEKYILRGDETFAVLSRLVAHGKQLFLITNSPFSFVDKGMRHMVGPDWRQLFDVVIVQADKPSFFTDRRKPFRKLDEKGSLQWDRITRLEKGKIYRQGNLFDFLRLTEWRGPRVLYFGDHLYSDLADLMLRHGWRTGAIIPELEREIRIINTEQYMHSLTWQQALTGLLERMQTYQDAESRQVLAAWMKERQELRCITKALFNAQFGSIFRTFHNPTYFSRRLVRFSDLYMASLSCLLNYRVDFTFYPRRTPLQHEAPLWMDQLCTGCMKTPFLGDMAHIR
UniProt Q6GQQ9: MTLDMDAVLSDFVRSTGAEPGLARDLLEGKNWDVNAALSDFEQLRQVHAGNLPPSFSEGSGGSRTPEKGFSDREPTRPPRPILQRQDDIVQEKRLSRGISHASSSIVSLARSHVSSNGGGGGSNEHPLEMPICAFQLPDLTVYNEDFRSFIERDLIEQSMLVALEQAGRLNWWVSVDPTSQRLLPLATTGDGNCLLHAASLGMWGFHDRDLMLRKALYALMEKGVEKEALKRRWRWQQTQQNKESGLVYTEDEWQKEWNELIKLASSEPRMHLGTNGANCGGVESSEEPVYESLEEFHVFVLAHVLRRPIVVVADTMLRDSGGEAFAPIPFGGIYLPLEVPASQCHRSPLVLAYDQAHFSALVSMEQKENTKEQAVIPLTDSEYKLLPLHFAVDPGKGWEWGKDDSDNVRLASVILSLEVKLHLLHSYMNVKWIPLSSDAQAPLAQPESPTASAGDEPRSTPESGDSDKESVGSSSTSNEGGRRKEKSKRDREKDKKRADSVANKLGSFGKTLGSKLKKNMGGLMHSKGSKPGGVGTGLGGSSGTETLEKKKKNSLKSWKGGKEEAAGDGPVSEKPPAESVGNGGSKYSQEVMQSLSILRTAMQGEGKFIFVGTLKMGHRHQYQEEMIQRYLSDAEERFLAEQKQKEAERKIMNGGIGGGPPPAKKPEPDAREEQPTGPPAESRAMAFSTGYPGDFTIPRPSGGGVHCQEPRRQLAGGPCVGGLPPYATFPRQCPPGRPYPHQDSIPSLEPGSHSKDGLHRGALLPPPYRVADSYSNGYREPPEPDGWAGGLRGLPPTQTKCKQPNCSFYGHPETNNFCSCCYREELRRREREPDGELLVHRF
UniProt O15294: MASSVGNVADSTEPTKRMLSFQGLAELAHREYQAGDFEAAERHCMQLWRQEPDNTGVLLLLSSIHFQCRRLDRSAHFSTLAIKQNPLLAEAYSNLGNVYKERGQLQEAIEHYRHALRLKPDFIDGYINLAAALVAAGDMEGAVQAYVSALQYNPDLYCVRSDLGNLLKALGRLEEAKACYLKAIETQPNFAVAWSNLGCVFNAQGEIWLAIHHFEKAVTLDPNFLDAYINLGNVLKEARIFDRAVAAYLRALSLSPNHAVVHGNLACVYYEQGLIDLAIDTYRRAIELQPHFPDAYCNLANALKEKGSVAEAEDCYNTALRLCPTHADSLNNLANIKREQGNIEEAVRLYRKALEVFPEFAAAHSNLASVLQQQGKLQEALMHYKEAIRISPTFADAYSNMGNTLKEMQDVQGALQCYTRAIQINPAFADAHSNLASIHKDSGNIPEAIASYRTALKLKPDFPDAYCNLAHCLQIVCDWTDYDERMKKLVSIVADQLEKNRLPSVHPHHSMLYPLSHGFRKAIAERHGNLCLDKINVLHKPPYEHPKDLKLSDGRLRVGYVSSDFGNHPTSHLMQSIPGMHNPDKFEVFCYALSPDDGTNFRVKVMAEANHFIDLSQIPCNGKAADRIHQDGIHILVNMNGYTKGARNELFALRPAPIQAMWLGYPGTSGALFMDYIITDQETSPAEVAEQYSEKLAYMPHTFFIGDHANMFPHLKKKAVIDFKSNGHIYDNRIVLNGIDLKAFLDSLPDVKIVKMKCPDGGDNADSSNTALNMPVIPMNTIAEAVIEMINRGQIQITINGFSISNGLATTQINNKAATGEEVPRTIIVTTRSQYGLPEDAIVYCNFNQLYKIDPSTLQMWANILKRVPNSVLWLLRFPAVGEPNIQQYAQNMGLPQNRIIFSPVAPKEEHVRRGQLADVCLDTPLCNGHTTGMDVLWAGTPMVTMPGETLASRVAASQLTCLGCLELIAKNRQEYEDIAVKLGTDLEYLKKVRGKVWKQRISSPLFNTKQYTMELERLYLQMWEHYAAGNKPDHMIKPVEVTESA
UniProt Q6PK18: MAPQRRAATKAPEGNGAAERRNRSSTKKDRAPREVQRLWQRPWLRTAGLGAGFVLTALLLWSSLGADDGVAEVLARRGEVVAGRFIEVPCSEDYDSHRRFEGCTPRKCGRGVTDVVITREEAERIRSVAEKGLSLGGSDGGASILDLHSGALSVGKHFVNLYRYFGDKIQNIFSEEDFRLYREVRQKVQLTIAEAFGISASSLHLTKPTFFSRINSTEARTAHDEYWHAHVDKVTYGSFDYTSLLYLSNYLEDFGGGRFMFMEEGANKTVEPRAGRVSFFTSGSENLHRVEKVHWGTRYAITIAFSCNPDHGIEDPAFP
UniProt Q9H6K4: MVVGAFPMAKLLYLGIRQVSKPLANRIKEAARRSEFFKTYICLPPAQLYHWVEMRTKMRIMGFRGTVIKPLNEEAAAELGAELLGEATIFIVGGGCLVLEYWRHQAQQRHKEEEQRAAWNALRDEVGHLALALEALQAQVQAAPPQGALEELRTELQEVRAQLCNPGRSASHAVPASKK
UniProt Q96E52: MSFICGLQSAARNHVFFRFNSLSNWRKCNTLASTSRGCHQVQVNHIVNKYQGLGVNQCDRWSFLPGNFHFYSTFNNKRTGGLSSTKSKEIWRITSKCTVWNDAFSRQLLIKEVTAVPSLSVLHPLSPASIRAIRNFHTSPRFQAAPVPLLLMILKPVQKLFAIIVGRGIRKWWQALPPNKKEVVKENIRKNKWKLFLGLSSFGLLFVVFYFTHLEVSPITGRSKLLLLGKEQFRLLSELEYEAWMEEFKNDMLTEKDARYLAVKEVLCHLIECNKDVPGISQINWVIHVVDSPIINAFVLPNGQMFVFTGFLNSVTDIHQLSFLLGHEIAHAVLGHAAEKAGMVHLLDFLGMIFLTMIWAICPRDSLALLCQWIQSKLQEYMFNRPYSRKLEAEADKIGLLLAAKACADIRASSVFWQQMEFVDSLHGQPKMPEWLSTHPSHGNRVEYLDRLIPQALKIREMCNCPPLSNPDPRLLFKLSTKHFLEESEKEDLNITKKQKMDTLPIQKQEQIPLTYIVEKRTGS
UniProt Q96HP4: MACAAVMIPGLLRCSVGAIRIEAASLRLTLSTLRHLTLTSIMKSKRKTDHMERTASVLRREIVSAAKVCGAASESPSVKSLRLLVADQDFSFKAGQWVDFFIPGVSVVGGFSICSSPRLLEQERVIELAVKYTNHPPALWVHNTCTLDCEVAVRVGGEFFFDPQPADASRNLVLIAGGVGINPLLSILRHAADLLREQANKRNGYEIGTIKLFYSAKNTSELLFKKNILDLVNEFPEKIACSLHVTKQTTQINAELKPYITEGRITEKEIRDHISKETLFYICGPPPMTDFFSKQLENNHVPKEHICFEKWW
UniProt Q9Y530: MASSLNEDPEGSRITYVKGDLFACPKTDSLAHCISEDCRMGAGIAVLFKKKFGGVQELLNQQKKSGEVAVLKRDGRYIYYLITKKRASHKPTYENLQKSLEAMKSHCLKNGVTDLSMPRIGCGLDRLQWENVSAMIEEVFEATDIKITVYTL
UniProt Q8NE18: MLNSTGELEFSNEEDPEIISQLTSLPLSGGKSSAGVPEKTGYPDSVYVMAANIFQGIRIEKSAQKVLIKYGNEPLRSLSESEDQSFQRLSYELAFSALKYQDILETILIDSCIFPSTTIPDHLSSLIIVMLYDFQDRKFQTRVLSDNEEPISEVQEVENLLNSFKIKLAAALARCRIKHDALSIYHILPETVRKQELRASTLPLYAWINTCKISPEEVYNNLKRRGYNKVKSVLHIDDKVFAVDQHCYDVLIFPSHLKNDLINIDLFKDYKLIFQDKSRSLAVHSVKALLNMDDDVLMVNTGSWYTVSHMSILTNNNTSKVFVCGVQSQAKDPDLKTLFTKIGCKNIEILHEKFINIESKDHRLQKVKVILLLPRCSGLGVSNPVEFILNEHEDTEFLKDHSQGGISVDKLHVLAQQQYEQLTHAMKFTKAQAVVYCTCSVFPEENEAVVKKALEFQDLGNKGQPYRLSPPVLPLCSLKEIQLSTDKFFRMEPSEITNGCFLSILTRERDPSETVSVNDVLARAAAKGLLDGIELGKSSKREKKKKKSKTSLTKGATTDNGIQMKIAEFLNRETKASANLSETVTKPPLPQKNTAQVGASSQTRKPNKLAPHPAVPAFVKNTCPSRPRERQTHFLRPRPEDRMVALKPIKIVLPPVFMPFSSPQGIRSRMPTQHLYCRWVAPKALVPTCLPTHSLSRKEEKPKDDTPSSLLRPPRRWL
UniProt Q9BSD7: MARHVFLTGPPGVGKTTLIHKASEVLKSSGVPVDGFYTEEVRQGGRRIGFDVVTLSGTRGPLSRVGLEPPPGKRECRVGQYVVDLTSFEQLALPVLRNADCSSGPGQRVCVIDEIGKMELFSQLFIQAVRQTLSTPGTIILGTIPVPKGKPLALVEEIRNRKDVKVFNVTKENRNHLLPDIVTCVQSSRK
UniProt Q6N063: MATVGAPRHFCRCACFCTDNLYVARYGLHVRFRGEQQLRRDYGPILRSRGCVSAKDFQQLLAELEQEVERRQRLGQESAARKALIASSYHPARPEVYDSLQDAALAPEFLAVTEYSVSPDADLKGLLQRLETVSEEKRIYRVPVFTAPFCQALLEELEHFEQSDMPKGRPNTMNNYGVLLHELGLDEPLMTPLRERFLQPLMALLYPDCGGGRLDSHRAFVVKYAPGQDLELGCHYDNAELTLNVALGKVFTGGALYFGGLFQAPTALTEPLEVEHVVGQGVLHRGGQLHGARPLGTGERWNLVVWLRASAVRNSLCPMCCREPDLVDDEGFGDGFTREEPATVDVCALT
UniProt Q8NFH5: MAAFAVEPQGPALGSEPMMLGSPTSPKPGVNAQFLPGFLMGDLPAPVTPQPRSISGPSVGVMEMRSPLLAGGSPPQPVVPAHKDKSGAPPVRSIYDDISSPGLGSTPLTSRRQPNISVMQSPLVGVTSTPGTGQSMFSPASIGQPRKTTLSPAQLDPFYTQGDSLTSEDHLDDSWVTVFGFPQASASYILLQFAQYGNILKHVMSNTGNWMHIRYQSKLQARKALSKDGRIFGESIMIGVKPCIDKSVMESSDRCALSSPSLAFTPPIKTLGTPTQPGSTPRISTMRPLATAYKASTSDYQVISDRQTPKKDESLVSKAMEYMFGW
UniProt P04181: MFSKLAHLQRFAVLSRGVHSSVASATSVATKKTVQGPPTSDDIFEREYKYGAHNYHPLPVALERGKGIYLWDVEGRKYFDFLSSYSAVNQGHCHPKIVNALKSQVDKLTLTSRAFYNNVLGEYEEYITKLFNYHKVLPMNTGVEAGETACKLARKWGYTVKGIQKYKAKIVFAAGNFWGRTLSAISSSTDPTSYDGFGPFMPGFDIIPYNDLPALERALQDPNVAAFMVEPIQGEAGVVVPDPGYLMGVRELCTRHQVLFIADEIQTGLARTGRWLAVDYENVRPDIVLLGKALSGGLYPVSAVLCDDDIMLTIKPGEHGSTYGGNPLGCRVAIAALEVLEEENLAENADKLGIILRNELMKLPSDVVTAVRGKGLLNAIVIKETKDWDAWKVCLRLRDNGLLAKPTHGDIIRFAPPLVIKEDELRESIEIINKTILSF

[1] = compound: Cc1cccc(CC(=O)N2CCc3c2ccc(-c2cn(C)c4ncnc(N)c24)c3F)n1
Method in brief: as §1

nilotinib = compound: Cc1cn(-c2cc(NC(=O)c3ccc(C)c(Nc4nccc(-c5cccnc5)n4)c3)cc(C(F)(F)F)c2)cn1 [nilotinib]
Method in brief: as §1

[2] = compound: Cc1nc(Nc2n[nH]c3c2CN(C(=O)N[C@H](CN(C)C)c2ccccc2)C3(C)C)c2sccc2n1
Method in brief: as §1

dasatinib = compound: Cc1nc(Nc2ncc(C(=O)Nc3c(C)cccc3Cl)s2)cc(N2CCN(CCO)CC2)n1 [dasatinib]
Method in brief: as §1

[3] = compound: Cc1ncc(-c2ccnc(Nc3ccc(S(C)(=O)=O)cc3)n2)n1C(C)C
Method in brief: as §1

[4] = compound: Cn1cc(-c2ccc3c(c2)CCN3C(=O)Cc2cccc(C(F)(F)F)c2)c2c(N)ncnc21
Method in brief: as §1

[5] = compound: Cn1cc(-c2ccc3nnc(C(F)(F)c4ccc5ncccc5c4)n3n2)cn1
Method in brief: as §1

tipifarnib = compound: Cn1cncc1[C@@](N)(c1ccc(Cl)cc1)c1ccc2c(c1)c(-c1cccc(Cl)c1)cc(=O)n2C [tipifarnib]
Method in brief: as §1

mubritinib = compound: FC(F)(F)c1ccc(/C=C/c2nc(COc3ccc(CCCCn4ccnn4)cc3)co2)cc1 [mubritinib]
Method in brief: as §1

Measured: log2 fold change

NUP210 (UniProt Q8TEM1)
inactive: bafetinib -0.178 | [1] 0.053 | nilotinib -0.125 | [2] -0.009 | dasatinib -0.118 | [3] -0.038 | [4] 0.055 | [5] 0 | tipifarnib -0.039 | mubritinib 0.034

OXA1L (UniProt Q15070)
inactive: bafetinib -0.152 | [1] -0.032 | nilotinib 0.013 | [2] -0.019 | dasatinib -0.01 | [3] -0.029 | [4] 0.013 | [5] 0.038 | tipifarnib 0.004 | mubritinib 0.003

NSUN5 isoform 2 (UniProt Q96P11)
inactive: bafetinib -0.004 | [1] -0.018 | nilotinib 0.001 | [2] -0.035 | dasatinib -0.016 | [3] -0.083 | [4] -0.079 | [5] 0.125 | tipifarnib -0.037 | mubritinib -0.071

NUDT16 (UniProt Q96DE0)
inactive: bafetinib -0.044 | [1] -0.035 | nilotinib 0 | [2] 0.015 | dasatinib 0.058 | [3] -0.049 | [4] 0.107 | [5] 0.019 | tipifarnib -0.02 | mubritinib 0.049

OXSM (UniProt Q9NWU1)
inactive: bafetinib -0.063 | [1] -0.034 | nilotinib 0.029 | [2] -0.002 | dasatinib 0.031 | [3] -0.015 | [4] 0.029 | [5] 0.021 | tipifarnib -0.009 | mubritinib 0.023

NT5DC2 isoform 2 (UniProt Q9H857)
inactive: bafetinib -0.023 | [1] -0.076 | nilotinib 0.038 | [2] 0.009 | dasatinib -0.009 | [3] -0.017 | [4] 0.005 | [5] 0.052 | tipifarnib -0.02 | mubritinib 0.021

OTUD7B (UniProt Q6GQQ9)
inactive: bafetinib -0.056 | [1] 0.239 | nilotinib -0.082 | [2] 0.08 | dasatinib 0.086 | [3] 0.135 | [4] -0.008 | [5] -0.087 | tipifarnib -0.069 | mubritinib -0.045

OGT (UniProt O15294)
inactive: bafetinib 0.03 | [1] 0.041 | nilotinib 0.044 | [2] -0.055 | dasatinib -0.089 | [3] 0.03 | [4] 0.005 | [5] 0.036 | tipifarnib -0.095 | mubritinib 0.191

OGFOD3 isoform 2 (UniProt Q6PK18)
inactive: bafetinib 0.012 | [1] -0.021 | nilotinib 0.085 | [2] -0.015 | dasatinib 0.041 | [3] 0.02 | [4] 0.018 | tipifarnib 0.025 | mubritinib -0.012

OCIAD1 (UniProt D6RDK6)
inactive: bafetinib 0.044 | [1] -0.127 | dasatinib 0.044 | [4] -0.113 | [5] 0.095 | tipifarnib 0.198 | mubritinib 0.016

ORC2 (UniProt Q13416)
inactive: bafetinib -0.085 | [1] 0.037 | nilotinib 0.036 | [2] 0.034 | [3] 0.127 | [5] 0.012 | tipifarnib -0.058 | mubritinib 0.018

OPA3 (UniProt Q9H6K4)
inactive: bafetinib -0.135 | nilotinib -0.051 | [2] 0.135 | dasatinib 0.1 | [3] -0.068 | [4] 0.023 | [5] -0.03 | tipifarnib 0.103 | mubritinib 0.126

NUP88 (UniProt Q99567)
inactive: bafetinib 0.013 | [1] 0.126 | nilotinib -0.116 | [2] -0.015 | dasatinib -0.11 | [3] -0.106 | [4] -0.109 | [5] -0.103 | tipifarnib -0.075 | mubritinib -0.004

OSGEP (UniProt Q9NPF4)
inactive: bafetinib -0.037 | [1] 0.026 | nilotinib 0.001 | [2] -0.003 | dasatinib 0.002 | [3] 0.058 | [4] 0.029 | [5] 0 | tipifarnib 0.001 | mubritinib 0.033

ORC5 (UniProt O43913)
inactive: bafetinib 0.01 | [1] 0.027 | nilotinib 0.133 | [2] -0.001 | dasatinib -0.231 | [3] -0.114 | [4] 0.067 | [5] 0.044 | tipifarnib 0.031 | mubritinib 0.045

NUF2 (UniProt Q9BZD4)
inactive: bafetinib 0.206 | [1] -0.162 | nilotinib -0.051 | [2] -0.133 | dasatinib -0.08 | [3] -0.061 | [4] -0.094 | tipifarnib -0.079 | mubritinib -0.184

OMA1 (UniProt Q96E52)
inactive: bafetinib 0.087 | [1] 0.062 | nilotinib -0.018 | [2] 0.027 | dasatinib -0.009 | [3] -0.023 | [4] 0.021 | [5] -0.103 | tipifarnib 0.021 | mubritinib 0.002

OXNAD1 (UniProt Q96HP4)
inactive: bafetinib -0.031 | [1] 0 | nilotinib -0.066 | [2] 0.017 | dasatinib 0.033 | [3] 0.035 | [4] 0.053 | [5] 0.046 | tipifarnib 0.06 | mubritinib -0.011

OARD1 (UniProt Q9Y530)
inactive: bafetinib 0.058 | nilotinib 0.004 | [2] -0.149 | dasatinib -0.091 | [3] 0.021 | [4] 0.018 | [5] -0.038 | tipifarnib -0.132 | mubritinib 0.026

NUDT5 (UniProt C9JYY9)
inactive: bafetinib -0.285 | [1] -0.117 | dasatinib 0.054 | [4] 0.03

NSUN7 (UniProt Q8NE18)
inactive: bafetinib 0.139 | [1] -0.628 | nilotinib -0.284 | [2] -0.003 | [3] 0.055 | [4] -0.023 | [5] -0.057 | tipifarnib 0.191 | mubritinib 0.025

OPA1 isoform 2 (UniProt O60313)
inactive: bafetinib -0.022 | [1] 0.069 | nilotinib -0.039 | [2] -0.025 | dasatinib -0.169 | [3] -0.004 | [4] 0.054 | [5] -0.031 | tipifarnib -0.12 | mubritinib 0.062

Reprinted from above (eight entries):
NSUN5 isoform 2 (UniProt Q96P11)
inactive: bafetinib -0.004 | [1] -0.018 | nilotinib 0.001 | [2] -0.035 | dasatinib -0.016 | [3] -0.083 | [4] -0.079 | [5] 0.125 | tipifarnib -0.037 | mubritinib -0.071

NUDT16 (UniProt Q96DE0)
inactive: bafetinib -0.044 | [1] -0.035 | nilotinib 0 | [2] 0.015 | dasatinib 0.058 | [3] -0.049 | [4] 0.107 | [5] 0.019 | tipifarnib -0.02 | mubritinib 0.049

OXSM (UniProt Q9NWU1)
inactive: bafetinib -0.063 | [1] -0.034 | nilotinib 0.029 | [2] -0.002 | dasatinib 0.031 | [3] -0.015 | [4] 0.029 | [5] 0.021 | tipifarnib -0.009 | mubritinib 0.023

NT5DC2 isoform 2 (UniProt Q9H857)
inactive: bafetinib -0.023 | [1] -0.076 | nilotinib 0.038 | [2] 0.009 | dasatinib -0.009 | [3] -0.017 | [4] 0.005 | [5] 0.052 | tipifarnib -0.02 | mubritinib 0.021

OTUD7B (UniProt Q6GQQ9)
inactive: bafetinib -0.056 | [1] 0.239 | nilotinib -0.082 | [2] 0.08 | dasatinib 0.086 | [3] 0.135 | [4] -0.008 | [5] -0.087 | tipifarnib -0.069 | mubritinib -0.045

OGT (UniProt O15294)
inactive: bafetinib 0.03 | [1] 0.041 | nilotinib 0.044 | [2] -0.055 | dasatinib -0.089 | [3] 0.03 | [4] 0.005 | [5] 0.036 | tipifarnib -0.095 | mubritinib 0.191

OGFOD3 isoform 2 (UniProt Q6PK18)
inactive: bafetinib 0.012 | [1] -0.021 | nilotinib 0.085 | [2] -0.015 | dasatinib 0.041 | [3] 0.02 | [4] 0.018 | tipifarnib 0.025 | mubritinib -0.012

OCIAD1 (UniProt D6RDK6)
inactive: bafetinib 0.044 | [1] -0.127 | dasatinib 0.044 | [4] -0.113 | [5] 0.095 | tipifarnib 0.198 | mubritinib 0.016

Additional records:

NTPCR (UniProt Q9BSD7)
inactive: bafetinib -0.003 | [1] 0.003 | nilotinib 0.071 | [2] -0.002 | dasatinib -0.027 | [3] 0.015 | [4] 0.041 | [5] 0.047 | tipifarnib -0.104 | mubritinib 0

OLA1 (UniProt Q9NTK5)
inactive: bafetinib -0.053 | [1] 0.021 | nilotinib -0.013 | [2] -0.01 | dasatinib -0.029 | [3] -0.001 | [4] 0.02 | [5] -0.011 | tipifarnib -0.042 | mubritinib 0.015

OGFOD2 (UniProt Q6N063)
inactive: bafetinib 0.009 | [1] 0.171 | nilotinib 0.004 | [2] -0.007 | dasatinib -0.04 | [3] -0.023 | [4] -0.011 | [5] 0.132 | mubritinib 0.092

NUDCD1 (UniProt Q96RS6)
inactive: bafetinib -0.05 | [1] 0.049 | nilotinib -0.023 | [2] -0.031 | dasatinib -0.054 | [3] -0.005 | [4] 0.018 | [5] -0.011 | tipifarnib -0.042 | mubritinib 0.021

OVCA2 (UniProt Q8WZ82)
inactive: bafetinib 0.171 | [1] 0.039 | nilotinib 0.026 | [2] -0.326 | [3] -0.163 | [5] -0.003 | tipifarnib -0.059 | mubritinib -0.231

NUP35 (UniProt Q8NFH5)
inactive: bafetinib 0.008 | [1] -0.009 | nilotinib -0.012 | [2] -0.002 | dasatinib -0.077 | [3] 0.032 | [4] -0.038 | [5] 0.033 | tipifarnib -0.022 | mubritinib -0.005

OAT (UniProt P04181)
inactive: bafetinib -0.038 | [1] -0.018 | nilotinib 0.036 | [2] -0.021 | dasatinib -0.109 | [3] -0.073 | [4] 0.026 | [5] 0.061 | tipifarnib -0.004 | mubritinib 0.002

Source: the supplement of paper PMC10849652
